These are yes or no findings as the source states them, for the method shown. Binding seen in cells or lysates may run through a third protein. These calls come from enrichment with a bait or labelling near it, and not all partners need be listed. No binding means not detected with the bait. Values belong to the binder of their own block, whether it stands above or below them.
Biological target: FBB18-YFP (Chlamydomonas reinhardtii)
Assay: affinity purification with mass spectrometry; lysate of 1x10^9 fbb18-1 rescue cells expressing FBB18-YFP, anti-GFP rabbit mAb agarose beads, wild-type cells as control; SDS-PAGE gel slices analysed by mass spectrometry; one experiment

B2: IC1 (protein, UniProt Q39578 1-683)
chain: MPALSPAKKGTDKGKTGKKTGKQEQNAQDYIPPPPPMPGDEAFAMPIREIVKPDNQLWLSEADLNEEVAKMLTANNPAAPKNIVRFNMKDKVFKLEPMVEQTVVHYATDGWLLHKSSDEAKRQMDMEKMEQEASARFQADIDRASHEHKDHGDVEPPDDSRQLRNQFNFSERAAQTLNYPLRDRETFTEPPPTATVSGACTQWEIYDEYIKDLERQRIDEAMKSKGGKKAAAAARAAGAAHRQRNEHVPTLQSPTLMHSLGTLDRMVNQNMYEEVAMDFKYWDDASDAFRPGEGSLLPLWRFVSDKSKRRQVTSVCWNPLYDDMFAVGYGSYEFLKQASGLINIYSLKNPSHPEYTFHTESGVMCVHFHPEFANLLAVGCYDGSVLVYDVRLKKDEPIYQASVRTGKLNDPVWQIYWQPDDAQKSLQFVSISSDGAVNLWTLTKSELIPECLMKLRVVRAGETREEEDPNASGAAGGCCMDFCKMPGQESIYLVGTEEGAIHRCSKAYSSQYLSTYVSHHLAVYAVHWNNIHPSMFLSASCRLDHQAVGLCHDPKRAVMNFDLNDSIGDVSWAALQPTVFAAVTDDGRVHVFDLAQNKLLPLCSQKVVKKAKLTKLVFNPKHPIVLVGDDKGCVTSLKLSPNLRITSKPEKGQKFEDLEVAKLDGVVEIARKSDADLAKNAAH
- binding: no binding

B3: DNAAF2/PF13 (protein, UniProt B5BUZ8 1-675)
chain: MPGKEENDTLEKSLKELNLTSDEMTKFEKAFKDPEFIKLFEEYAKEVSDPKVKAETDAYLRQIEQQGRAEDVYGAGTQLIVPDPAGAVIKTKVVSSSASKKQQQEQEKQEKEQQQQAAGAGKPEGPGKQGALPVGQKVFINICTCDKLERYSLTDAQDPATGRLRPKLTIPLSLGPVRQGADKQGAPAAVYDFVVHPDSWTFAAGNAAGLATLADTALDHVEQVGRCRLVRAWKRLNCRYKGTEGAAEPPVQCIRTSAAAAAGAAGEGAGGRVRPRPDVPGVPDLPGAKTAPPAAAGAAATAAAAAGAAEGGAGSSSRSTFSFDKSRKAGGTEAAGAVAKQEATITDPARPGYRHPDGAVTPEWGLLHRGEADLGEAWGDAGKGLAAGGRVPKELVVRVTLPDVSSAAPVDLDVGARCLALTVPNRYRLSVQLPYGVDDAKGRAKFDKARKVLEVTLPVVPPPAPPPGAAAAARAGLALIQELGGSEEAAEVKAEVEVEVADVMGRDQEAAHAKSEAGAGAGVKSPHTAAAASSGAAPAPAAASEEEEEEDKEDGGPAAGSGGDPAAAAAAAGASSGRELTENERKWRELHARQQQEEQEQQEAAEAAAAAAAAAAEPSSRSQLTGTVAQGGAAAAAESVAAAKQQVQQQPVAAAAAPTAVLRPRLNRELAMELD
- binding: binds

B6: DNAAF18/DAW1/ODA16/WDR69 (protein, UniProt Q3Y8L7 1-446)
chain: MAAKLRKFLLRYYPPGIILQYERDGVMKQKPIDLLDLTPDVDVEVLLSQIIRQEPLISENRRPALRQLIHRLIDKMLEQQHHSFTLFKVLRAHILPLTNCAFNKSGDRFITGSYDRTCKVWNTFTGEEVFTLEGHKNVVYAIAFNNPYGDKIVTGSFDKTCKLWDAYTGQLYYTLKGHQTEIVCLSFNPQSTIIATGSMDNTAKLWDVETGQERATLAGHRAEIVSLGFNTGGDLIVTGSFDHDSRLWDVRTGQCVHVLSGHRGEVSSTQFNYAGTLVVSGSIDCTSRLWDVRSGRCLSVKQGHTDEVLDVAFDAAGTKMVSASADGSARLYHTLTGVCQHTLVGHEGEISKVAFNPQGTRLITASSDKTCRLWDCDTGECLQVLEGHTDEIFSCAFNYEGDFIITGSKDNTCRIWKALTASSQPAGPGGAGGGLARPTTAFSYND
- binding: no binding

Further lines, results first:

- binding: binds
B1: HSP90C (protein, UniProt Q66T67 1-810)
chain: MMLRGLSSGMRQARAQSSASAASAARPLPLLARGNGVSSALLSGASPCAAVTAAASLRPLPAGRGPVLMRAAATEAASGSETFTYQAEVDRLMDMIVNSLYSNREVFLRELISNASDALDKARFLSLTDPSVLAGREELDIRISADKEKGTLVIEDSGIGMSREQLLSNLGTIARSGTRKFMEAMAAKGDTNLIGQFGVGFYSAFLVADRVMVQSKSPEEAKHWVWEAKAGSHQYSIREDEAKDLVRGTRITLYLKEDAAEMADTVKITQLIKQYSQFIAFPIKVYAPKKEPRKVVDEEATKKKQAAADAKAKEAGEEAAKPVEPVMKTEYDEVWDWRLENENKPIWTRSPKDVSETAYNDFFKTTFGEFLDPLAHVHFNVEGTIEFSSILYIPGMAPFEQQNMQQRSKSIKLYVKRVFISDEFDEDLMPRYLAFVKGVVDSSDLPLNVSREILQESRIVRVIRKQLVRRSIEMLEELAGKEGGEDYKTFWEAFGRNIKYGVIEDTENRERLSKLLRFSSSKAEDSLTSLDEYVGRMGANQKTIYYMAADSVAAARAAPFMEAMVAKGIEVLYLTEPIDEACVTNLGKYGPDKNGPQYELVDVSKEGVSLDEGEDEKKKAEEVAKDMAPVVDFLKKALGERVEKVTVSNRLLDSPCALVTSKFGWSANMERIMRSQALGDARAMEYMKGRKIMEINPNHDIIAGIKTLLKEKDEDRARDLSELLYETALITSGFQVDSPKDYASKVFTLMKIALGYDILSEAEEQAAAAAPQAAEAAAAPKAAEAAAVPKVEATPVDAEVVSDDPWKKSA

- binding: binds
B4: p28 (protein, UniProt Q39604 1-253)
chain: MIPPLSSLVRYDNPVLVSTSKDKGKGAKGTPGKKGALPPVEQKPGLTQTEDILNSILPPREWTEDGQLWVQYVSSTPATRLDVINLQEKLDQQLQQRQARETGICPIREELYAQTFDELIRQVTINCAERGLLLLRVRDEMRMTIAAYQTLYESAVAFGIRKALQTEQGKSEMESRITQLEGDVKDLERQVQEWKFKCEAIEKRESERREVEAKKHKDEVAYLENYAKQLKQQLETFLVPAKKGAPGAPAAAT

- binding: no binding
B5: DNAAF14/MOT48 (protein, UniProt D4AHU0 1-451)
chain: MLITDNMLGKQEPQAVGPMDGPEPSPEELLALVELLQQQGMNMDQVPADLKTMLHNVKRQKAPATKGPATPEAPTEEITPDPGFVIKTTETKTGDKIFINVCWHDRVAAPGGWSNGVMPDEVAAALEKLQSAGGDEGAAHMSPSEVEALRFPLACGAPRVDTDRKGSPCTAIDVVFNSDVVRAAASARKLKAMLIEVSLGWVGNKLGGKLDPRYKLPKMRYKGEVVASQRIRADDKRKKLVTELREVDEEPSFALRTKKAPAPPPITAQSPASAASSTVAAPATASSADQQSVAAVGPASNHDRSSGAAASPSAAPTYKVDYAGRPVQWVQVTVDFPASGPSSSAAAQQPGCTSVEVCGRNVYIRAGPGAPELHVPLQFAVSAEGATAAWQEQQQPSTGGGKGPGGPLGQHLVVRLPYMGLQDYLADARAQAPLAFGQLSFASKALLELEP

From article PMC9455862
